# Some of the results follow.
# Amino acid sequences for entries named in this document (tags omitted). A change or cut given only in a name is not applied to a line headed by its entry.
# UniProt O43837: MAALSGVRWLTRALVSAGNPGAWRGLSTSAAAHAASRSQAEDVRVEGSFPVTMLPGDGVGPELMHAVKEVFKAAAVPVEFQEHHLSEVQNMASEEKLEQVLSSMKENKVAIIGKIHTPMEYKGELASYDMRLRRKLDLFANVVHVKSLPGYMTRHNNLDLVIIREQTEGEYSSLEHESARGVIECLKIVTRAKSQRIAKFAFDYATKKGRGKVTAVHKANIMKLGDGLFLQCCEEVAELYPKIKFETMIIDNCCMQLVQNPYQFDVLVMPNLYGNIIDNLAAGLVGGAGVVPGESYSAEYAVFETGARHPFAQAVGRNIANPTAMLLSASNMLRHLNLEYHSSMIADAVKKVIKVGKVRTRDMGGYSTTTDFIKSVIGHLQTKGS
# UniProt P19823: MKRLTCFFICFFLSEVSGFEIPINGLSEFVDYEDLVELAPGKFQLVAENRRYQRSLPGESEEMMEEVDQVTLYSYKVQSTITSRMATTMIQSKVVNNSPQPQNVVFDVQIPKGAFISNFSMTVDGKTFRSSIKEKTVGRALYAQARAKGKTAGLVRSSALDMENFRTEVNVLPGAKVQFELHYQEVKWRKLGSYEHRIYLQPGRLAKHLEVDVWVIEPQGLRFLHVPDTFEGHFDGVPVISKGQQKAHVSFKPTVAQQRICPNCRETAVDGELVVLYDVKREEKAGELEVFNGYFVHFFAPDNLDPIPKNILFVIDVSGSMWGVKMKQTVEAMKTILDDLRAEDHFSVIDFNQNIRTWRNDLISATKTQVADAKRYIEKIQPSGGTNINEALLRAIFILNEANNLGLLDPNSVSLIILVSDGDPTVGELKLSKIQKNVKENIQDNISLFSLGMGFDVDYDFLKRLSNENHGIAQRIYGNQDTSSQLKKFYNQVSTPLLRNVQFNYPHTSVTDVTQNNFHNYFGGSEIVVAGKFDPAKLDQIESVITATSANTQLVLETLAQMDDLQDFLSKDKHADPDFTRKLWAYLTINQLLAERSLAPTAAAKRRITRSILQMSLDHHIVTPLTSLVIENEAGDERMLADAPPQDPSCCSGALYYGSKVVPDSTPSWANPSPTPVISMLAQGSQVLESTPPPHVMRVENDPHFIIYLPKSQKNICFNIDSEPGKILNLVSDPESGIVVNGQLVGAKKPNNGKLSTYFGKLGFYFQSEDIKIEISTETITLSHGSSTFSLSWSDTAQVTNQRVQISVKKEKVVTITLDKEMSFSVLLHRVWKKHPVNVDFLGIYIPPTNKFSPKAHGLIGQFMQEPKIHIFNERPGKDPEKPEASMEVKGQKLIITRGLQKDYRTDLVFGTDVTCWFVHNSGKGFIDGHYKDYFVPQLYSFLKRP
# UniProt Q14653: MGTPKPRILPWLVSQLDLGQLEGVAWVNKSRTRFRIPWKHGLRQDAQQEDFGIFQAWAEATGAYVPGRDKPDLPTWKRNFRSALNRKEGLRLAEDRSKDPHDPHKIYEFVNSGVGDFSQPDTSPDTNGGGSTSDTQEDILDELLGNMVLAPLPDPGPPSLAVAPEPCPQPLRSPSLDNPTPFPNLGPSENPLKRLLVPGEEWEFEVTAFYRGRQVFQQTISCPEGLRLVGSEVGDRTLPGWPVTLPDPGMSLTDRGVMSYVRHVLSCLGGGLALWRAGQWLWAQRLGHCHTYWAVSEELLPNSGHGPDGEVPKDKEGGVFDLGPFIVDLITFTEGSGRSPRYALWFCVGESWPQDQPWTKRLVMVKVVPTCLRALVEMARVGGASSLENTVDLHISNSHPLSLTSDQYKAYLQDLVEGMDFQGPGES
# UniProt Q6P9B9, whole entry, looked up: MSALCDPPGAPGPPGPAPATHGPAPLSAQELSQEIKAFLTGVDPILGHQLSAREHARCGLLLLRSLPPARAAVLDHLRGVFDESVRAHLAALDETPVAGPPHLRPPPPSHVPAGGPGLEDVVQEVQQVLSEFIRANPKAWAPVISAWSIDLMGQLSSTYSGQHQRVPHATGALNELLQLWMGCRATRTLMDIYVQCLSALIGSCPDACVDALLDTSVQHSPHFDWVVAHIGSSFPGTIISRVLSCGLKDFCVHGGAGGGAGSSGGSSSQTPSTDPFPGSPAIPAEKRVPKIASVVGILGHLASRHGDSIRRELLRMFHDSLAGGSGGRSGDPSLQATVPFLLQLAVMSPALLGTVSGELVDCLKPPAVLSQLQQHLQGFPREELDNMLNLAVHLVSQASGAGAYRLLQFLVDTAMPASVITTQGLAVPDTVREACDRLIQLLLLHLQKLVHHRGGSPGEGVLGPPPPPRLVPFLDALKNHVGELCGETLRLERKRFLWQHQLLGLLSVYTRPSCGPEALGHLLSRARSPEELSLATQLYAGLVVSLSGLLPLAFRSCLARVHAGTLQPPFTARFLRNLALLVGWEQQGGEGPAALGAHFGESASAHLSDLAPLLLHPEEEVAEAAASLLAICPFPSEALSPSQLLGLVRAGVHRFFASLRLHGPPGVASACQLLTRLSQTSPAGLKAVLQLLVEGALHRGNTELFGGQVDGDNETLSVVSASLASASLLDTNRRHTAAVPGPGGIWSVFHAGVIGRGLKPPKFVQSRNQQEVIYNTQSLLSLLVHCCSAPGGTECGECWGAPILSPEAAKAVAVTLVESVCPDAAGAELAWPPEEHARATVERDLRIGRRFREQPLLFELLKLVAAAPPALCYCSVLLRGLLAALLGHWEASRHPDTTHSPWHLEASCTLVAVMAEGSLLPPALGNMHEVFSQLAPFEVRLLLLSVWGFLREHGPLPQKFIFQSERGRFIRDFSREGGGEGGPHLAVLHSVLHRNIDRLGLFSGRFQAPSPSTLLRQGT
# UniProt Q9NPH2: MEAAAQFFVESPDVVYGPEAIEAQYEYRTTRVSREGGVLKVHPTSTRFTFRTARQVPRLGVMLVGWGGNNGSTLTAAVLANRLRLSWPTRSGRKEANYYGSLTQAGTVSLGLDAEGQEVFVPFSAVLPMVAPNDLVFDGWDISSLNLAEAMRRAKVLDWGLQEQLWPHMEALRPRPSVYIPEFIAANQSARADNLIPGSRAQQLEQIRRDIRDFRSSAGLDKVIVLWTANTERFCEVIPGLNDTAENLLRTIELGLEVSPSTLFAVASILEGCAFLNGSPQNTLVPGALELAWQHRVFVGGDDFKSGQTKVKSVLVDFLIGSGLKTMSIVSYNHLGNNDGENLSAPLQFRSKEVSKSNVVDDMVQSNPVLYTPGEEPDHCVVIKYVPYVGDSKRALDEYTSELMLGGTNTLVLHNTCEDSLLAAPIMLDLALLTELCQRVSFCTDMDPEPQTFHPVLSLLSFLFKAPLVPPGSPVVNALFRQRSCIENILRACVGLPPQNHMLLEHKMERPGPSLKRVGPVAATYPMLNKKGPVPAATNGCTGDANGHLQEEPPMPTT
# UniProt O95373, whole entry, looked up: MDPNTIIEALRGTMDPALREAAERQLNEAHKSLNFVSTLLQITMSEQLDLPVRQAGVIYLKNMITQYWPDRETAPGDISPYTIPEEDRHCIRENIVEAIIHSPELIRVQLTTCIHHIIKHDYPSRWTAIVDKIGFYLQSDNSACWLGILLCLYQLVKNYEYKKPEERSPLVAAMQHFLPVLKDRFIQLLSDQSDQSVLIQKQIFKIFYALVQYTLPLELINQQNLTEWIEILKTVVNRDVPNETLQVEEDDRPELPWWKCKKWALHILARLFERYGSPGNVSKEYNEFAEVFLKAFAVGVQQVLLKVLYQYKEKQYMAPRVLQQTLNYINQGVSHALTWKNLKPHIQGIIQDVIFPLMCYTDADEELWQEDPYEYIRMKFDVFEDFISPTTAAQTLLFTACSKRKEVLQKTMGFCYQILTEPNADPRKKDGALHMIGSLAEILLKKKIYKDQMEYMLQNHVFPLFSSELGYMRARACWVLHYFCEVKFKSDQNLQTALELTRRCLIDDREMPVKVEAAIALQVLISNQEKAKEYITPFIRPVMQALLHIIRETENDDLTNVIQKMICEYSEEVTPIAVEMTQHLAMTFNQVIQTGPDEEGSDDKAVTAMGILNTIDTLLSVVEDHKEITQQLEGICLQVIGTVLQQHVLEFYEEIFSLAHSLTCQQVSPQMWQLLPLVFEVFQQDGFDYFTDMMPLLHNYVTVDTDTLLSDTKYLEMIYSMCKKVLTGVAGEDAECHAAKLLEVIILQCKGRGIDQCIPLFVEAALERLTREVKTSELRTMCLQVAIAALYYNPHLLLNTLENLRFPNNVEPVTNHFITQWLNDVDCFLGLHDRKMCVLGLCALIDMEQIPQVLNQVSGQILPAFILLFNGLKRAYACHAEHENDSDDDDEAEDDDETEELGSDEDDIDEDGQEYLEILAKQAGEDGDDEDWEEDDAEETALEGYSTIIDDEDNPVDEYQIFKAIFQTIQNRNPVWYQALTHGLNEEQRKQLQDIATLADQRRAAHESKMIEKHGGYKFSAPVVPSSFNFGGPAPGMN
# UniProt Q969R8: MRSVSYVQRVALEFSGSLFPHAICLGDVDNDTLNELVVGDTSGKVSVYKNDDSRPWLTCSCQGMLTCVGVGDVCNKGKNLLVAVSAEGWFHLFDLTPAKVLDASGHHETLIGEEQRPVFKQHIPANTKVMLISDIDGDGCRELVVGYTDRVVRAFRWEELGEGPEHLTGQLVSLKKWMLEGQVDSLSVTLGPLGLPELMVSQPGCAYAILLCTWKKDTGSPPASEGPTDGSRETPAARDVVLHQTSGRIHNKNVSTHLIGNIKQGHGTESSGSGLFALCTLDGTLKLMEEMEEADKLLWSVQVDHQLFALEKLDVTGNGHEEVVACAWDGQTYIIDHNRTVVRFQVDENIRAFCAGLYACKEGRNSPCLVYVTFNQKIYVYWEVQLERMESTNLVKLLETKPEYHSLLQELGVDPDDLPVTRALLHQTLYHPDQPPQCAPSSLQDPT
# UniProt Q16891: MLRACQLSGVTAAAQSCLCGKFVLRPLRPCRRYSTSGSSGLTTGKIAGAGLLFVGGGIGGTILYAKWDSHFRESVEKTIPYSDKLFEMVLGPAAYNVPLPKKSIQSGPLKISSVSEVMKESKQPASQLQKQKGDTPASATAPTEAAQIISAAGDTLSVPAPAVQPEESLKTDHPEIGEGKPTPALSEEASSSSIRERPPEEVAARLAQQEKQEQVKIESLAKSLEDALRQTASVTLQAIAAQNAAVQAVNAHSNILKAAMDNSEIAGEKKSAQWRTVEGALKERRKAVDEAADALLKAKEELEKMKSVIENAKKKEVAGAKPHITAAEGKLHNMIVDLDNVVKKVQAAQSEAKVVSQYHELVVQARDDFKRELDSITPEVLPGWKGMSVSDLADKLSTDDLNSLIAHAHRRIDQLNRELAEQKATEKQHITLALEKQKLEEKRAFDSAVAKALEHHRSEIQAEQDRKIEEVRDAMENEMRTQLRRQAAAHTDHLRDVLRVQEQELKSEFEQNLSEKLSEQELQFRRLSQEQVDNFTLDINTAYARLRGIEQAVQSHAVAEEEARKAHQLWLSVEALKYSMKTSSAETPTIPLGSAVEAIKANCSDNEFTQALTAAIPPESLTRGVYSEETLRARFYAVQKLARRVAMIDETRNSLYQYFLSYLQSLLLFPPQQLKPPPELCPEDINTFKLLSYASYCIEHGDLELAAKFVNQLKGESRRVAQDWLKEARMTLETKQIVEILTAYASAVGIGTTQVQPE
# UniProt Q86U28: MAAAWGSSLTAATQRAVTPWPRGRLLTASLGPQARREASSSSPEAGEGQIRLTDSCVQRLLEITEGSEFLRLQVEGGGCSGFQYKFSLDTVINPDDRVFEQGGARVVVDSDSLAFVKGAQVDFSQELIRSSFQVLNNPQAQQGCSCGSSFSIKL
# UniProt Q9Y287, whole entry, looked up: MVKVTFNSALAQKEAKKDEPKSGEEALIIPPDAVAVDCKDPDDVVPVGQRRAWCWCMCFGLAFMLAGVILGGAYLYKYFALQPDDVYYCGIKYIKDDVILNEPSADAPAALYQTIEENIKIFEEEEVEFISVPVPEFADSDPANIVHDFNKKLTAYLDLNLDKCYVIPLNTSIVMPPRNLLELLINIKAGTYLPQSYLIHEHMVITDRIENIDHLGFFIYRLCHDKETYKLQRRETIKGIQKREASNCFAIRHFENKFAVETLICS
# UniProt Q7Z5L9: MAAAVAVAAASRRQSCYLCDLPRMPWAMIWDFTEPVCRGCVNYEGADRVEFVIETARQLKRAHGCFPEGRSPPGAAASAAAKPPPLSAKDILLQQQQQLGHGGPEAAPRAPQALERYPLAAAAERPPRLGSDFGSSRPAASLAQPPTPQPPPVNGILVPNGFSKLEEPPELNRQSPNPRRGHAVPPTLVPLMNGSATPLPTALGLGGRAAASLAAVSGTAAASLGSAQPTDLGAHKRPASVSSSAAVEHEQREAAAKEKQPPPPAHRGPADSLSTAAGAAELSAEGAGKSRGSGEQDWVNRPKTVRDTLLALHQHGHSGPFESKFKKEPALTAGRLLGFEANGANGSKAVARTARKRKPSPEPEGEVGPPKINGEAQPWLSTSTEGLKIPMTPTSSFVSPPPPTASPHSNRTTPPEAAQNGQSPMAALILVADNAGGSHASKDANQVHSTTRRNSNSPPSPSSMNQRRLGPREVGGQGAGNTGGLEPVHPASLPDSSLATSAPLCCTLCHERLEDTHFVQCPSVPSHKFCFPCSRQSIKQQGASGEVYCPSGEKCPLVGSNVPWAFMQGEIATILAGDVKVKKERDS
# Compound: CC1=C(C=C(C=C1)NC(=O)C2=CC(=CC=C2)C(C)(C)C#N)NC3=CC4=C(C=C3)N=CN(C4=O)C
# Experiment: log2 fold change, soluble protein after heating vs DMSO (PISA); higher = thermal stabilisation; K562 cells, 10 uM, 30 min; active = over 0.2 and 3.5 SD of the protein, either way, in both replicates (recomputed)
# Procedure, shortened: (§1)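 Aliquots of K562 cells (2×10^6 cells/mL) treated with 10 μM compound for 30 min were heated for 3 min over 48°C-58°C. After pooling and extraction in PBS with 0.5% NP-40 at 4°C, soluble protein from a 21,000xg, 90 min spin was quantified by TMTpro 16plex LC-MS/MS with channel sums equalised. Thermal stability is expressed against control samples, from duplicates, as a log2 fold change.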
row,Target,log2 fold change
1,ILKAP (UniProt Q9H0C8),inactive: -0.026
2,ILK (UniProt Q13418),inactive: -0.179
3,IDH3B (UniProt O43837),inactive: 0.027
4,IL27RA (UniProt Q6UWB1),inactive: -0.048
5,ILF2 (UniProt Q12905),inactive: 0.036
6,ILVBL (UniProt A1L0T0),inactive: -0.021
7,ITPKA (UniProt P23677),inactive: 0.164
8,ITIH2 (UniProt P19823),inactive: -0.089
9,INPP5B (UniProt P32019),inactive: 0.02
10,ISCU (UniProt Q9H1K1),inactive: -0.022
11,IFITM3 (UniProt Q01628),inactive: -0.058
12,INTS14 (UniProt Q96SY0),inactive: -0.003
13,IRF3 (UniProt Q14653),inactive: 0.18
14,INTS5 (UniProt Q6P9B9),inactive: 0.091
15,IMP4 (UniProt Q96G21),inactive: -0.065
16,ISY1 isoform 1 (UniProt Q9ULR0),inactive: -0.026

row,Target,log2 fold change
1,IKBKB (UniProt O14920),inactive: 0.035
2,INTS3 (UniProt Q68E01),inactive: -0.049
3,IRAK4 (UniProt Q9NWZ3),inactive: 0.006
4,IFRD1 (UniProt O00458),inactive: 0.123
5,ISYNA1 (UniProt Q9NPH2),inactive: 0.006
6,IER3IP1 (UniProt Q9Y5U9),inactive: -0.06
7,IPO7 (UniProt O95373),inactive: 0.004
8,IQSEC1 (UniProt Q6DN90),inactive: -0.025
9,INPPL1 (UniProt O15357),inactive: -0.089
10,ITFG2 (UniProt Q969R8),inactive: -0.177
11,ILRUN (UniProt Q9H6K1),inactive: 0.06
12,IMMT isoform 2 (UniProt Q16891),inactive: 0.053
13,ISCA2 (UniProt Q86U28),inactive: -0.017
14,ITM2B (UniProt Q9Y287),inactive: 0.01
15,IRF2BP2 (UniProt Q7Z5L9),inactive: 0.001
16,INTS2 (UniProt Q9H0H0),inactive: 0.038

# Compound: CC1=C(C=C(C=C1)NC(=O)C2=CC(=CC=C2)N(C)C)NC(=O)C3=CC=C(C=C3)O
# Experiment: as above
# Procedure, shortened: as §1
row,Target,log2 fold change
1,ILKAP (UniProt Q9H0C8),inactive: -0.117
2,ILK (UniProt Q13418),inactive: -0.053
3,IDH3B (UniProt O43837),inactive: -0.056
4,IL27RA (UniProt Q6UWB1),inactive: -0.048
5,ILF2 (UniProt Q12905),inactive: -0.032
6,ILVBL (UniProt A1L0T0),inactive: -0.052
7,ITPKA (UniProt P23677),inactive: 0.176
8,ITIH2 (UniProt P19823),inactive: 0.458
9,INPP5B (UniProt P32019),inactive: -0.06
10,ISCU (UniProt Q9H1K1),inactive: 0.011
11,IFITM3 (UniProt Q01628),inactive: 0.074
12,INTS14 (UniProt Q96SY0),inactive: -0.049
13,IRF3 (UniProt Q14653),inactive: -0.081
14,INTS5 (UniProt Q6P9B9),inactive: -0.061
15,IMP4 (UniProt Q96G21),inactive: 0.07
16,ISY1 isoform 1 (UniProt Q9ULR0),inactive: -0.006

row,Target,log2 fold change
1,IKBKB (UniProt O14920),inactive: 0.003
2,INTS3 (UniProt Q68E01),inactive: 0.033
3,IRAK4 (UniProt Q9NWZ3),inactive: -0.039
4,IFRD1 (UniProt O00458),inactive: 0.033
5,ISYNA1 (UniProt Q9NPH2),inactive: 0.011
6,IER3IP1 (UniProt Q9Y5U9),inactive: 0.003
7,IPO7 (UniProt O95373),inactive: -0.007
8,INPPL1 (UniProt O15357),inactive: -0.066
9,ITFG2 (UniProt Q969R8),inactive: -0.013
10,ILRUN (UniProt Q9H6K1),inactive: -0.02
11,IMMT isoform 2 (UniProt Q16891),inactive: 0.074
12,ISCA2 (UniProt Q86U28),inactive: 0
13,ITM2B (UniProt Q9Y287),inactive: -0.052
14,IRF2BP2 (UniProt Q7Z5L9),inactive: 0.005
15,INTS2 (UniProt Q9H0H0),inactive: 0.067

# Compound: CC1=CC=C(C=C1)SC2=C3C=C(SC3=CN=C2)C(=O)N
# Experiment: as above
# Procedure, shortened: as §1
row,Target,log2 fold change
1,ILKAP (UniProt Q9H0C8),inactive: 0.072
2,ILK (UniProt Q13418),inactive: 0.025
3,IDH3B (UniProt O43837),inactive: 0.067
4,IL27RA (UniProt Q6UWB1),inactive: -0.006
5,ILF2 (UniProt Q12905),inactive: -0.031
6,ILVBL (UniProt A1L0T0),inactive: 0.005
7,ITPKA (UniProt P23677),inactive: 0.055
8,ITIH2 (UniProt P19823),inactive: 0.123
9,INPP5B (UniProt P32019),inactive: -0.071
10,ISCU (UniProt Q9H1K1),inactive: -0.002
11,IFITM3 (UniProt Q01628),inactive: 0.148
12,INTS14 (UniProt Q96SY0),inactive: 0.035
13,IRF3 (UniProt Q14653),inactive: 0.011
14,INTS5 (UniProt Q6P9B9),inactive: 0.026
15,ISY1 isoform 1 (UniProt Q9ULR0),inactive: -0.008
16,IKBKB (UniProt O14920),inactive: 0.091
17,INTS3 (UniProt Q68E01),inactive: -0.016
18,IRAK4 (UniProt Q9NWZ3),inactive: 0
19,IFRD1 (UniProt O00458),inactive: 0.098
20,ISYNA1 (UniProt Q9NPH2),inactive: 0.085
21,IER3IP1 (UniProt Q9Y5U9),inactive: 0.008
22,IPO7 (UniProt O95373),inactive: 0.035
23,INPPL1 (UniProt O15357),inactive: -0.034
24,ITFG2 (UniProt Q969R8),inactive: -0.002
25,ILRUN (UniProt Q9H6K1),inactive: 0.088
26,IMMT isoform 2 (UniProt Q16891),inactive: -0.05
27,ISCA2 (UniProt Q86U28),inactive: -0.042
28,ITM2B (UniProt Q9Y287),inactive: 0.036
29,IRF2BP2 (UniProt Q7Z5L9),inactive: 0.017
30,INTS2 (UniProt Q9H0H0),inactive: -0.092

# Reference: the supplement of paper PMC10849652
